{
  "source": "PubChem BioAssay AID977622",
  "about": "(Broad Institute, 2014)",
  "experiment": "wild-type E. coli growth inhibition versus h38 humanized strain – h38 mutant RFP, wild-type GFP, cherry-pick, dose response (AID 977622)",
  "details": "24 h",
  "note": "This is one part of the list.",
  "data": [
    {"compound": "O=[N+]([O-])c1cc([N+](=O)[O-])c(Nc2nnnn2CCO)c([N+](=O)[O-])c1", "values": [
      {"measurement": "activity change", "setting": "E. coli WT ribosome GFP fluorescence, mixed culture, h38 mutant RFP at 50 uM", "result": 16.8, "unit": "%"},
      {"measurement": "activity change", "setting": "E. coli mixed culture, total growth OD600 at 50 uM", "result": 4.97, "unit": "%"}
    ]}
  ]
}
